Results from patent publication US7838676B2, “Beta-secretase modulators and methods of use” (Amgen Inc., priority 2005, dated 2010).
Some entries share one result that the patent states for a list of compounds. For at least one compound, name, drawing or mass did not settle the structure.

Protein sequences, listed by entry. Tags and fused reporters are not part of them. Residues count along the entry.
UniProt P56817, 46-501, species assumed: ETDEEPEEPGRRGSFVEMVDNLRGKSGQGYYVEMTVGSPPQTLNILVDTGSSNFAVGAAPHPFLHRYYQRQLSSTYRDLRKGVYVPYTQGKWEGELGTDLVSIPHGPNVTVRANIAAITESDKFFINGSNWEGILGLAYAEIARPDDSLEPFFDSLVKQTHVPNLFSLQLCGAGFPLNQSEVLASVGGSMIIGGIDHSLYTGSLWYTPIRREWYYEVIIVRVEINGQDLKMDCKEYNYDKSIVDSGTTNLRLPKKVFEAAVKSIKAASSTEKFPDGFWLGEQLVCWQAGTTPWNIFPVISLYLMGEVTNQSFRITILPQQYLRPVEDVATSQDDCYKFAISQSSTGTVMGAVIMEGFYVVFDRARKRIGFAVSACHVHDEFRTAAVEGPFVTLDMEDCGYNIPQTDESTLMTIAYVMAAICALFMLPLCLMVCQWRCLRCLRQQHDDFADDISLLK

Target: BACE (Homo sapiens, UniProt P56817)
Experiment: In Vitro Enzymatic BACE FRET (Fluorescence Resonance Energy Transfer) Assay
Assay type: biochemical
Details: enzyme 0.2 nM, FRET substrate 50 nM, pH 4.2

CCc1ccc2c(c1)C(NCC(O)C(Cc1ccccc1)NC(=O)c1cc(C3CCCCC3)cc(C3CCCCN3C(C)=O)c1)CC1(CCCC1)O2 [Example 11, 3-(1-acetylpiperidin-2-yl)-5-cyclohexyl-N-((2S,3R)-4-((S)-6-ethyl-2,2-spirocyclopentylchroman-4-ylamino)-3-hydroxy-1-phenylbutan-2-yl)benzamide]
IC50: ≤ 5 µM

CC(C)(C)Cc1cnc2c(c1)[C@@H](NC[C@@H](O)[C@H](Cc1ccccc1)NC(=O)c1ncccc1F)CC1(CCC1)O2 [Example 96, N-((1S,2R)-3-(((4′S)-6′-(2,2-dimethylpropyl)-3′,4′-dihydrospiro[cyclobutane-1,2′-pyrano[2,3-b]pyridin]-4′-yl)amino)-2-hydroxy-1-(phenylmethyl)propyl)-3-fluoro-2-pyridinecarboxamide]
IC50: ≤ 5 µM

CCc1ccc2c(c1)[C@@H](NC[C@@H](O)[C@H](Cc1ccccc1)NC(=O)c1cc(-c3ccccn3)nc(C3CCCC3)c1)CC1(CCCC1)O2 [Example 150, 6-cyclopentyl-N-((1S,2R)-3-(((4S)-6-ethyl-3,4-dihydrospiro[chromene-2,1′-cyclo-pentan]-4-yl)amino)-2-hydroxy-1-(phenyl-methyl)propyl)-2,2′-bipyridine-4-carboxamide]
IC50: ≤ 5 µM

CCc1ccc2c(c1)[C@@H](NC[C@@H](O)[C@H](Cc1ccccc1)NC(=O)c1cc(C3=CCCCC3)nc(-c3ccccn3)c1)CC1(CCCC1)O2 [Example 148, 6-(1-cyclohexen-1-yl)-N-((1S,2R)-3-(((4S)-6-ethyl-3,4-dihydrospiro[chromene-2,1′-cyclopentan]-4-yl)amino)-2-hydroxy-1-(phenylmethyl)propyl)-2,2′-bipyridine-4-carboxamide]
IC50: ≤ 5 µM

CC(C)(C)Cc1ccc2c(c1)[C@@H](NC[C@@H](O)[C@H](Cc1ccccc1)NC(=O)c1ccc(F)c(N3CCCC3=O)c1)CC1(CCCC1)O2 [Example 116]
IC50: ≤ 5 µM

CCc1ccc2c(c1)C(NCC(O)C(Cc1ccccc1)NC(=O)c1ccnc(N3CCCC(C)C3)c1)CC(C)(C)O2 [Example 138, N-((1S,2R)-3-(((4S)-6-ethyl-2,2-dimethyl-3,4-dihydro-2H-chromen-4-yl)amino)-2-hydroxy-1-(phenylmethyl)propyl)-2-((3S)-3-methyl-1-piperidinyl)-4-pyridinecarboxamide and ′N-((1S,2R)-3-(((4S)-6-ethyl-2,2-dimethyl-3,4-dihydro-2H-chromen-4-yl)amino)-2-hydroxy-1-(phenylmethyl)propyl)-2-((3R)-3-methyl-1-piperidinyl)-4-pyridinecarboxamide]
IC50: ≤ 5 µM

CCc1cnc2c(c1)[C@@H](NC[C@@H](O)[C@H](Cc1ccccc1)NC(=O)c1cccc(N3CCCC3=O)c1F)CC1(CCC1)O2 [Example 101, N-((1S,2R)-3-(((4′S)-6′-ethyl-3′,4′-dihydrospiro[cyclobutane-1,2′-pyrano[2,3-b]pyridin]-4′-yl)amino)-2-hydroxy-1-(phenylmethyl)propyl)-2-fluoro-3-(2-oxo-1-pyrrolidinyl)benzamide]
IC50: ≤ 5 µM

CCCCc1nc2cc(Br)cc(C(=O)N[C@@H](Cc3ccccc3)[C@H](O)CN[C@H]3CC4(CCCC4)Oc4ccc(CC)cc43)c2o1 [Example 147, 5-bromo-2-butyl-N-((1S,2R)-3-(((4S)-6-ethyl-3,4-dihydrospiro[chromene-2,1′-cyclopentan]-4-yl)amino)-2-hydroxy-1-(phenylmethyl)propyl)-1,3-benzoxazole-7-carboxamide]
IC50: ≤ 5 µM

CCc1ccc2c(c1)[C@@H](NC[C@@H](O)[C@H](Cc1ccccc1)NC(=O)c1cccc3c1OCCCC(=O)N3)CC1(CCCC1)O2 [Example 32, N-((2S,3R)-4-((S)-6-ethyl-2,2-spirocyclopentylchroman-4-ylamino)-3-hydroxy-1-phenylbutan-2-yl)-5-oxo-3,4,5,6-tetrahydro-2H-benzo[b][1,4]oxazocine-10-carboxamide]
IC50: ≤ 5 µM

CCc1ccc2c(c1)[C@@H](NC[C@@H](O)[C@H](Cc1ccccc1)NC(=O)c1cncnc1)CC1(CCC1)O2 [Example 19, N-((2S,3R)-4-((S)-6-ethyl-2,2-spirocyclobutylchroman-4-ylamino)-3-hydroxy-1-phenylbutan-2-yl)pyrimidine-5-carboxamide]
IC50: ≤ 5 µM

CCc1ccc2c(c1)[C@@H](NC[C@@H](O)[C@H](Cc1ccccc1)NC(=O)c1cccc(-c3ccccn3)c1F)CC1(CCC1)O2 [Example 2, N-((1S,2R)-3-(((4S)-6-ethyl-3,4-dihydrospiro[chromene-2,1′-cyclobutan]-4-yl)amino)-2-hydroxy-1-(phenylmethyl)propyl)-2-fluoro-3-(2-pyridinyl)benzamide]
IC50: ≤ 5 µM

CCc1ccc2c(c1)[C@@H](NC[C@@H](O)[C@H](Cc1ccccc1)NC(=O)c1cc(N3CCCC3=O)ccc1OC)CC1(CCC1)O2 [Example 35, N-((2S,3R)-4-((S)-6-ethyl-2,2-spirocyclobutylchroman-4-ylamino)-3-hydroxy-1-phenylbutan-2-yl)-2-methoxy-5-(2-oxopyrrolidin-1-yl)benzamide]
IC50: ≤ 5 µM

O=C(N[C@@H](Cc1ccccc1)[C@H](O)CN[C@H]1CC2(CCC2)Oc2ncc(Br)cc21)c1cc(Br)c2ccn(CCc3ccccc3)c2c1 [Example 56, 4-bromo-N-((1S,2R)-3-(((4′S)-6′-bromo-3′,4′-dihydrospiro[cyclobutane-1,2′-pyrano[2,3-b]pyridin]-4′-yl)amino)-2-hydroxy-1-(phenylmethyl)propyl)-1-(2-phenylethyl)-1H-indole-6-carboxamide]
IC50: ≤ 5 µM

CCc1ccc2c(c1)[C@@H](NC[C@@H](O)[C@H](Cc1ccccc1)NC(=O)c1ccc(Br)s1)CC1(CCCC1)O2 [Example 135, 5-bromo-N-((2S,3R)-4-((S)-6-ethyl-2,2-spirocyclopentylchroman-4-ylamino)-3-hydroxy-1-phenylbutan-2-yl)thiophene-2-carboxamide]
IC50: ≤ 5 µM

CCc1ccc2c(c1)[C@@H](NC[C@@H](O)[C@H](Cc1ccccc1)NC(=O)c1ccc(F)c(-c3ccccn3)c1)CC1(CCC1)O2 [Example 50, N-((1S,2R)-3-(((4S)-6-ethyl-3,4-dihydro-2spiro[chromene-,1′-cyclobutan]-4-yl)amino)-2-hydroxy-1-(phenylmethyl)propyl)-4-fluoro-3-(2-pyridinyl)benzamide]
IC50: ≤ 5 µM

CCc1ccc2c(c1)[C@@H](NC[C@@H](O)[C@H](Cc1ccccc1)NC(=O)c1ccno1)CC1(CCC1)O2 [Example 157, N-((1S,2R)-3-(((4S)-6-ethyl-3,4-dihydrospiro[chromene-2,1′-cyclobutan]-4-yl)amino)-2-hydroxy-1-(phenylmethyl)propyl)-5-isoxazolecarboxamide]
IC50: ≤ 5 µM

CC(C)(C)Cc1cnc2c(c1)[C@@H](NC[C@@H](O)[C@H](Cc1ccccc1)NC(=O)c1cc(Cl)ccc1F)CC1(CCC1)O2 [Example 99, 5-chloro-N-((1S,2R)-3-(((4′S)-6′-(2,2-dimethylpropyl)-3′,4′-dihydrospiro[cyclobutane-1,2′-pyrano[2,3-b]pyridin]-4′-yl)amino)-2-hydroxy-1-(phenylmethyl)propyl)-2-fluorobenzamide]
IC50: ≤ 5 µM

CCc1ccc2c(c1)[C@@H](NC[C@@H](O)[C@H](Cc1ccccc1)NC(=O)c1cc(Cl)nc(N3CCC[C@@H](CCO)C3)c1)CC1(CCCC1)O2 [Example 194, 2-chloro-N-((1S,2R)-3-(((4S)-6-ethyl-3,4-dihydrospiro[chromene-2,1′-cyclopentan]-4-yl)amino)-2-hydroxy-1-(phenylmethyl)propyl)-6-((3S)-3-(2-hydroxyethyl)-1-piperidinyl)-4-pyridinecarboxamide]
IC50: ≤ 5 µM

CCc1ccc2c(c1)[C@@H](NC[C@@H](O)[C@H](Cc1ccccc1)NC(=O)c1cc(-c3ccccn3)nc3ccccc13)CC1(CCC1)O2 [Example 204, N-((1S,2R)-3-(((4S)-6-ethyl-3,4-dihydrospiro[chromene-2,1′-cyclobutan]-4-yl)amino)-2-hydroxy-1-(phenylmethyl)propyl)-2-(2-pyridinyl)-4-quinolinecarboxamide]
IC50: ≤ 5 µM

CCc1ccc2c(c1)[C@@H](NC[C@@H](O)[C@H](Cc1ccccc1)NC(=O)c1ccno1)CC(C)(C)O2 [Example 143, N-((1S,2R)-3-(((4S)-6-ethyl-2,2-dimethyl-3,4-dihydro-2H-chromen-4-yl)amino)-2-hydroxy-1-(phenylmethyl)propyl)-5-isoxazolecarboxamide]
IC50: ≤ 5 µM

CCc1ccc2c(c1)[C@@H](NC[C@@H](O)[C@H](Cc1ccccc1)NC(=O)c1cccc(C)c1)CC1(CCC1)O2 [Example 198, N-((1S,2R)-3-(((4S)-6-ethyl-3,4-dihydrospiro[chromene-2,1′-cyclobutan]-4-yl)amino)-2-hydroxy-1-(phenylmethyl)propyl)-3-methylbenzamide]
IC50: ≤ 5 µM

O=C(N[C@@H](Cc1ccccc1)[C@H](O)CN[C@H]1CC2(CCCC2)Oc2ccccc21)c1ccc(F)c(N2CCCC2=O)c1 [Example 86, N-((2S,3R)-4-((S)-2,2-spirocyclopentylchroman-4-ylamino)-3-hydroxy-1-phenylbutan-2-yl)-4-fluoro-3-(2-oxopyrrolidin-1-yl)benzamide]
IC50: ≤ 5 µM

CCc1ccc2c(c1)C(NCC(O)C(Cc1ccccc1)NC(=O)c1cc(OC)nc(N3CCCC(c4ccccc4)C3)c1)CC1(CCCC1)O2 [Example 183, N-((2S,3R)-4-((S)-6-ethyl-2,2-spirocyclopentylchroman-4-ylamino)-3-hydroxy-1-phenylbutan-2-yl)-2-methoxy-6-((R)-3-phenylpiperidin-1-yl)isonicotinamide]
IC50: ≤ 5 µM

CCc1ccc2c(c1)C(NCC(O)C(Cc1ccccc1)NC(=O)c1cc(OC)nc(N3CCCC(C)C3)c1)CC(C)(C)O2 [Example 142, N-((1S,2R)-3-(((4S)-6-ethyl-2,2-dimethyl-3,4-dihydro-2H-chromen-4-yl)amino)-2-hydroxy-1-(phenylmethyl)propyl)-2-(methyloxy)-6-((3R)-3-methyl-1-piperidinyl)-4-pyridinecarboxamide and ′N-((1S,2R)-3-(((4S)-6-ethyl-2,2-dimethyl-3,4-dihydro-2H-chromen-4-yl)amino)-2-hydroxy-1-(phenylmethyl)propyl)-2-(methyloxy)-6-((3S)-3-methyl-1-piperidinyl)-4-pyridinecarboxamide]
IC50: ≤ 5 µM
